Results reported in the supplement of paper PMC10849652.
This is one part of the list.

By UniProt entry, the sequences of proteins in these tests, tags left out. Where a name states a change or a piece, a line headed by the entry shows the natural chain unless it says otherwise.
UniProt Q6UN15: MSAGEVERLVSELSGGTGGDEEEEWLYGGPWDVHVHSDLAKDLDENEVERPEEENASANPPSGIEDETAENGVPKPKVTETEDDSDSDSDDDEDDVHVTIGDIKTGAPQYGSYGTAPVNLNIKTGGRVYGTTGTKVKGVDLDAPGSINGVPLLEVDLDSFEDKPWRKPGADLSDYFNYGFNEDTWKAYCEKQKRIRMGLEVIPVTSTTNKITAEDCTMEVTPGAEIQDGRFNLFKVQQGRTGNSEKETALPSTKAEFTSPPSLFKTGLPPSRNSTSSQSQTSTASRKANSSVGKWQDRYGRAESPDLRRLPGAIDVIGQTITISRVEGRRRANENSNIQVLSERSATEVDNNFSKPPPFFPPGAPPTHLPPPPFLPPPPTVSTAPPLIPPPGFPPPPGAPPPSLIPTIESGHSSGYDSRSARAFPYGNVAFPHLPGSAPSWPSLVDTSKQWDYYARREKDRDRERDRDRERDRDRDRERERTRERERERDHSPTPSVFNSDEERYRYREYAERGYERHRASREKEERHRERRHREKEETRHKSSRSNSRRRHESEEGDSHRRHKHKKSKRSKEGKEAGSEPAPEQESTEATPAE
UniProt Q13045: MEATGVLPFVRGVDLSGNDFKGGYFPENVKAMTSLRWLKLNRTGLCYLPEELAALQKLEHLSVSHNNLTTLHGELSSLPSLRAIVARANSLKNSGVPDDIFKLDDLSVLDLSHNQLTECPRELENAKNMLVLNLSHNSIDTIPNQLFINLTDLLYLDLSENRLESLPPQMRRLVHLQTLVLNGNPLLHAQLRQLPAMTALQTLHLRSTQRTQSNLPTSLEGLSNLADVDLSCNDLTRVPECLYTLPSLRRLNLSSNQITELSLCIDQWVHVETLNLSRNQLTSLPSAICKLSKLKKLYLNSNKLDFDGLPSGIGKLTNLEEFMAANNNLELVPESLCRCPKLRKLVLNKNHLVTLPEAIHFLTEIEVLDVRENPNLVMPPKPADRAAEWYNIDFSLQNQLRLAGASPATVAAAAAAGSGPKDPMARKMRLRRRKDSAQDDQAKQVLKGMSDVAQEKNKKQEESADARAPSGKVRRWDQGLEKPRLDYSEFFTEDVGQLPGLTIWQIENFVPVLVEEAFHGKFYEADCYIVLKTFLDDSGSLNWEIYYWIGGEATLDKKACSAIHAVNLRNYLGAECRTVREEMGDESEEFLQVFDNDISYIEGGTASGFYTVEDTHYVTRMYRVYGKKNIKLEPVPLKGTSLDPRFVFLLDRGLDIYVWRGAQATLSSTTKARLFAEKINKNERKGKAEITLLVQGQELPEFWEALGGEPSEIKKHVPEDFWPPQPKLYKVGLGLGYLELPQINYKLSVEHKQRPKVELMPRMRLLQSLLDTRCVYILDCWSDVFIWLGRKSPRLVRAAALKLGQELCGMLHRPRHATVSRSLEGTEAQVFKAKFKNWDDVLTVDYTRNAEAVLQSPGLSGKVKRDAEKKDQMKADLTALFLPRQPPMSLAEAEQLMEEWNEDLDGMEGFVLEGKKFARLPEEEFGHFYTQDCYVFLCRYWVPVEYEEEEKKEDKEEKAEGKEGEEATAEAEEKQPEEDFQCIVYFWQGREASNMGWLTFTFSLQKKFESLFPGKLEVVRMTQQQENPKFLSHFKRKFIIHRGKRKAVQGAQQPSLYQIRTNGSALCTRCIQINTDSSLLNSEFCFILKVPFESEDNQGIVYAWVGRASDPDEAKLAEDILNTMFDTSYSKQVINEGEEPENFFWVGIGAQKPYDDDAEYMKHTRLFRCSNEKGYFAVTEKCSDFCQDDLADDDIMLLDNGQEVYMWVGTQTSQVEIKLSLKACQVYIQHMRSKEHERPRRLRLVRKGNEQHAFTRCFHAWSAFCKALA
UniProt Q92520: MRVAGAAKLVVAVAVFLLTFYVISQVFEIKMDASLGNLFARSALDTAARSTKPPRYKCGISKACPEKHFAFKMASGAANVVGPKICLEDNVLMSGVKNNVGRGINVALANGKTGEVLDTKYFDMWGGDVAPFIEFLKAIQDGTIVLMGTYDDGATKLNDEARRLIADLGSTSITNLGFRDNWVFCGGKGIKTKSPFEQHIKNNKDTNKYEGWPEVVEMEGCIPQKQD
UniProt Q92913: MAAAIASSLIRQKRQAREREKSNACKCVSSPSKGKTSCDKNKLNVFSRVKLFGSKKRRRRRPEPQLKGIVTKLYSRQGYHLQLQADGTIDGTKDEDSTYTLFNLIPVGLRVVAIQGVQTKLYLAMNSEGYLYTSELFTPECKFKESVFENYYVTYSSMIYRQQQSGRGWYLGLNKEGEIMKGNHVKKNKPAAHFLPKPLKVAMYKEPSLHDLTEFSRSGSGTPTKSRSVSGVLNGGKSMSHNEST
UniProt O75955: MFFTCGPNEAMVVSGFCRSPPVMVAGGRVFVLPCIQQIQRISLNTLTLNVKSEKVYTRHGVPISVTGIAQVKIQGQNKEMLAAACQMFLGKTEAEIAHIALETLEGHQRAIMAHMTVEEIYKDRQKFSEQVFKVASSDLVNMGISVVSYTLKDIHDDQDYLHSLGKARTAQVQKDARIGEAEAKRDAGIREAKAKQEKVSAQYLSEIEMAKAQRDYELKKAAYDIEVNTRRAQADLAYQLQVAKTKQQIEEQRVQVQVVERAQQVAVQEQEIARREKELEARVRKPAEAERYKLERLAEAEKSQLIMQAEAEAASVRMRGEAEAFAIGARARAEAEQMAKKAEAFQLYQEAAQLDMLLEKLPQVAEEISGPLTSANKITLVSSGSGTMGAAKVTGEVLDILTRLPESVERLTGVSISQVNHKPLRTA
UniProt Q96IG2: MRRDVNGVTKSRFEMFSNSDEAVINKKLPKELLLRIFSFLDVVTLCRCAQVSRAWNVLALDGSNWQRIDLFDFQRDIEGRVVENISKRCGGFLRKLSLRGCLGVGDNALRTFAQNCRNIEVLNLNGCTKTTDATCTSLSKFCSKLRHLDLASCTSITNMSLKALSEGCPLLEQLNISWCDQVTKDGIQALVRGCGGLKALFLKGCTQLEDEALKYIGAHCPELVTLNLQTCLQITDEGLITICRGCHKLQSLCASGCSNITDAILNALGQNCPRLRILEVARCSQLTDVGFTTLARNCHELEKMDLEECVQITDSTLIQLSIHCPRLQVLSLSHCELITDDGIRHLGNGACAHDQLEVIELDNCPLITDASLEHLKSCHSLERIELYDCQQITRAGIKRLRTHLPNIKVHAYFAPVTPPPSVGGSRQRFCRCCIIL
UniProt Q14192: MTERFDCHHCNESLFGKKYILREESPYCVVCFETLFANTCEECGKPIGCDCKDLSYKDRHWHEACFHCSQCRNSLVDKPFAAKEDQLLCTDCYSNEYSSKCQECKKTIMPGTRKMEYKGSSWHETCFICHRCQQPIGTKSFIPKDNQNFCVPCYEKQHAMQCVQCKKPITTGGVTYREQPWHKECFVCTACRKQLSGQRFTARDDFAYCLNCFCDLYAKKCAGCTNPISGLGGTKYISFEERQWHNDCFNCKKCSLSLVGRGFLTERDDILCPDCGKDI
UniProt Q13643: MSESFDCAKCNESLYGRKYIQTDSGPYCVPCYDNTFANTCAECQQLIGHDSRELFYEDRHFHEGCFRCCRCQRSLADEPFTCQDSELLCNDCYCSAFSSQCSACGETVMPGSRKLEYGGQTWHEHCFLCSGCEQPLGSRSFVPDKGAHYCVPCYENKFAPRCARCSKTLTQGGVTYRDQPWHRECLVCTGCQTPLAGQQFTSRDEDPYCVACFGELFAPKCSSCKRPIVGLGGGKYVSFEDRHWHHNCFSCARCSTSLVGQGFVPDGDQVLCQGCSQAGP
UniProt Q8NFF5: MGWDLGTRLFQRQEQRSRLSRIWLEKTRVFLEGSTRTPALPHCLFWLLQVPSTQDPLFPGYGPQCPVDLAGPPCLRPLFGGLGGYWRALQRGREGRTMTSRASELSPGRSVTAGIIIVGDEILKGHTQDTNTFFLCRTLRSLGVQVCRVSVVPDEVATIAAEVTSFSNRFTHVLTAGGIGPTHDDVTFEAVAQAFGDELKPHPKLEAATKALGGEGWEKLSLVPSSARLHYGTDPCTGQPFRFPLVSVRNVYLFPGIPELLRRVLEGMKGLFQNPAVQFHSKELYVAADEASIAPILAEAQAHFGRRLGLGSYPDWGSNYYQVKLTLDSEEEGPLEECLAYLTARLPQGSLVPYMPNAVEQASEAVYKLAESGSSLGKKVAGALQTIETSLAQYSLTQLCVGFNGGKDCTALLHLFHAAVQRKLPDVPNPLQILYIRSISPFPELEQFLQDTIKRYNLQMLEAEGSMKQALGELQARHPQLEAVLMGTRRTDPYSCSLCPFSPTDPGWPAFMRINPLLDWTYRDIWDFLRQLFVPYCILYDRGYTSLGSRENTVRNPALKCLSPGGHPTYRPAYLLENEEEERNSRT
UniProt P07954: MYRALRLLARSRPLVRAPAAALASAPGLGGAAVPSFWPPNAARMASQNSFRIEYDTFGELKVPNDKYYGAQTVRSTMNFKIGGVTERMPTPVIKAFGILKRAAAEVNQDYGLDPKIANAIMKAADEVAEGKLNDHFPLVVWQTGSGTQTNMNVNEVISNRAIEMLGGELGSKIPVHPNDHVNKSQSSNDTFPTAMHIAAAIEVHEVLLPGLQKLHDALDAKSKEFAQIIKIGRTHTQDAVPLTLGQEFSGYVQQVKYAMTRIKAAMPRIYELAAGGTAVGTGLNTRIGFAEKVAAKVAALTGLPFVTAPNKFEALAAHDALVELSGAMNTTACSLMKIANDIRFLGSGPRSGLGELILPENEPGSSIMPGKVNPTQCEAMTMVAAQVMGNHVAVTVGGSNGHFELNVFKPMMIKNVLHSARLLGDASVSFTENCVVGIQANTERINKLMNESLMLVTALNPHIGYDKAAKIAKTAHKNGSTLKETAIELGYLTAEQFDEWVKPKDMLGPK
UniProt Q52LJ0: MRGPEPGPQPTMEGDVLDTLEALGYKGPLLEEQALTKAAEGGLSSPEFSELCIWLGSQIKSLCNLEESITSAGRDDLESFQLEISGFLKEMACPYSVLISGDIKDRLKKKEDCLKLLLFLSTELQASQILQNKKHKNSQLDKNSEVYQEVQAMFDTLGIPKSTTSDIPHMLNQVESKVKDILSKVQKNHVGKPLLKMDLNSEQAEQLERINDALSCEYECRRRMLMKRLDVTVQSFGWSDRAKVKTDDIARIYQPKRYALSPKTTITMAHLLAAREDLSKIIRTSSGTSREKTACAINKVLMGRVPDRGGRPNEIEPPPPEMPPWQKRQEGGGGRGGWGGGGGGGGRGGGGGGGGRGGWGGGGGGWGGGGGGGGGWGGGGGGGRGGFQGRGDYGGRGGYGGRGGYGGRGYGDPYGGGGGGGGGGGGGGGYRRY
UniProt Q9NUQ9: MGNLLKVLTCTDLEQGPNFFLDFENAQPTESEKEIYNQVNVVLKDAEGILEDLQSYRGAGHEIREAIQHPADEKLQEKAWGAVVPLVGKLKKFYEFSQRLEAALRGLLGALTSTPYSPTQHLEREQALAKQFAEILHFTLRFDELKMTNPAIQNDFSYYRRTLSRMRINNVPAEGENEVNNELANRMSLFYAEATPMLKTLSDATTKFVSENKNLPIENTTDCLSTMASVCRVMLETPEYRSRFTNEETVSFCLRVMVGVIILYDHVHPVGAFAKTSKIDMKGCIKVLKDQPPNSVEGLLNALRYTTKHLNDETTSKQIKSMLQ
UniProt Q8NB91: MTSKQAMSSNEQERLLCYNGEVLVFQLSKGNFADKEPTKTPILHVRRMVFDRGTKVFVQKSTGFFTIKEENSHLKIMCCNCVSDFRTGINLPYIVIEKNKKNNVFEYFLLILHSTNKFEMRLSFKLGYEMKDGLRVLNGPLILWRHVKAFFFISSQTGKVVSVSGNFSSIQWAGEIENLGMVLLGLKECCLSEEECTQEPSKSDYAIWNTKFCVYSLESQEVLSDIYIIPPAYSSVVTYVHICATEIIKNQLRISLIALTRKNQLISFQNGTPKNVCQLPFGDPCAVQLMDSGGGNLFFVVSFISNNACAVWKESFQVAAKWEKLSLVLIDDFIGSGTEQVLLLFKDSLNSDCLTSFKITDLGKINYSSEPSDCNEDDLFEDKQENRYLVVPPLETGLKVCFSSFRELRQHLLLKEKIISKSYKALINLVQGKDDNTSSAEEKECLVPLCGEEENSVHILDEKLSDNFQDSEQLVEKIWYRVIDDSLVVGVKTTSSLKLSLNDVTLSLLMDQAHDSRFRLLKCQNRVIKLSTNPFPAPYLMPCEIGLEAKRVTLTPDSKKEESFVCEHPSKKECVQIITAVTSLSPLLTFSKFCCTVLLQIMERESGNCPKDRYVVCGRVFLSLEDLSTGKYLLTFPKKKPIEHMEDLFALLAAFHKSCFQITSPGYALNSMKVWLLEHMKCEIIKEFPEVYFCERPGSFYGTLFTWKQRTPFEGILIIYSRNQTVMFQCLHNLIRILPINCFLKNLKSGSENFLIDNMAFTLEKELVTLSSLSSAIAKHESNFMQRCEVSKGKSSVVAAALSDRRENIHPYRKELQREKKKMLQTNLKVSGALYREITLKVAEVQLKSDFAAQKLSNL

Experiments:
Experiment in all cases: log2 fold change, soluble protein after heating vs DMSO (PISA); higher = thermal stabilisation; K562 cells, 10 uM, 30 min; active = over 0.2 and 3.5 SD of the protein, either way, in both replicates (recomputed)
[1] = compound: CC[C@@H]1C(=O)N(C)c2cnc(Nc3ccc(C(=O)NC4CCN(C)CC4)cc3OC)nc2N1C1CCCC1
How it was run: (§1)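 Aliquots of K562 cells (2×10^6 cells/mL) treated with 10 μM compound for 30 min were heated for 3 min over 48°C-58°C. After pooling and extraction in PBS with 0.5% NP-40 at 4°C, soluble protein from a 21,000xg, 90 min spin was quantified by TMTpro 16plex LC-MS/MS with channel sums equalised. Thermal stability is expressed against control samples, from duplicates, as a log2 fold change.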

[2] = compound: CC[C@@H]1C(=O)N(C)c2cnc(Nc3ccc(C(=O)N[C@H]4CC[C@H](N5CCN(CC6CC6)CC5)CC4)cc3OC)nc2N1C(C)C [volasertib]
How it was run: as §1

[3] = compound: CC[C@H](C)N1C=C(C2=C(C=C(C=C21)C3=CN=C(C=C3)N4CCNCC4)C(=O)NCC5=C(C=C(NC5=O)C)C)C
How it was run: as §1

[4] = compound: CC[C@H](C)[C@@H](C(=O)N[C@@H]([C@@H](C)O)C(=O)N[C@@H](CC(C)C)C(=O)[C@]1(CO1)C)NC(=O)[C@H]([C@@H](C)CC)N(C)C(=O)C [epoxomicin]
How it was run: as §1

[5] = compound: CCn1c(C(=O)N(C2CC2)C2CC2)cc2c3c(ncn3C)c(Nc3cc(C)n(C)n3)nc21
How it was run: as §1

[6] = compound: CCn1cc(-c2ccnc3[nH]c(-c4cccc(CN(C)C)c4)cc23)c(-c2ccc(NC(=O)N(C)C)cc2)n1
How it was run: as §1

[7] = compound: CN(C)CC(=O)Nc1ccc2[nH]c(=O)c3ccccc3c2c1
How it was run: as §1

[8] = compound: CN(CCOC1=CC=C(C=C1)C[C@H]2C(=O)NC(=O)S2)C3=CC=CC=N3 (racemic) [rosiglitazone]
How it was run: as §1

[9] = compound: CN1C2=C(C3=C1C(=O)N(N=C3)CC4=CC(=CC=C4)N)SC(=C2)S(=O)C
How it was run: as §1

[10] = compound: CN1CCC(CNc2ccc3ncc(-c4cccc(OC(F)(F)F)c4)n3n2)CC1
How it was run: as §1

[11] = compound: CN1CCN(CCOc2cc(OC3CCOCC3)c3c(Nc4c(Cl)ccc5c4OCO5)ncnc3c2)CC1 [saracatinib]
How it was run: as §1

[12] = compound: CN1CCN(c2nc(C3=C(c4c[nH]c5ccccc45)C(=O)NC3=O)c3ccccc3n2)CC1 [sotrastaurin]
How it was run: as §1

[13] = compound: CN1CC[C@H](c2c(O)cc(O)c3c(=O)cc(-c4ccccc4Cl)oc23)[C@H](O)C1 [alvocidib]
How it was run: as §1

[14] = compound: CN1CCc2c(c3ccccc3n2Cc2ccc(C(=O)NO)cc2)C1 [Tubastatin A]
How it was run: as §1

[15] = compound: CNC(=O)C1=CC=CC=C1NC2=NC(=NC=C2Cl)NC3=C(C=C(C=C3)N4CCOCC4)OC
How it was run: as §1

[16] = compound: CNC(=O)c1ccc(Nc2ncc(C(F)(F)F)c(NCc3nccnc3N(C)S(C)(=O)=O)n2)cc1 [defactinib]
How it was run: as §1

[17] = compound: CNCc1ccc(-c2[nH]c3cc(F)cc4c3c2CCNC4=O)cc1 [rucaparib]
How it was run: as §1

[18] = compound: CNc1nc(-c2ccc3c(N)n[nH]c3c2)cc(N2C[C@@H](C(=O)NC3CCCCC3)CC[C@H]2C)n1
How it was run: as §1

[19] = compound: COC(=O)N[C@@H](C)CNc1nccc(-c2cn(C(C)C)nc2-c2cc(Cl)cc(NS(C)(=O)=O)c2F)n1 [encorafenib]
How it was run: as §1

[20] = compound: COC(=O)[C@H](CCSC)NC(=O)C1=C(C=C(C=C1)NC[C@H](CS)N)C2=CC=CC=C2
How it was run: as §1

Measured: log2 fold change

FIP1L1 (UniProt Q6UN15)
inactive: [1] 0.001 | [2] 0.016 | [3] -0.017 | [4] -0.061 | [5] 0.005 | [6] 0.093 | [7] -0.018 | [8] -0.016 | [9] 0.094 | [10] 0.004 | [11] 0.089 | [12] 0.006 | [13] 0.053 | [14] -0.021 | [15] -0.148 | [16] -0.053 | [17] 0.008 | [18] -0.108 | [19] 0.016 | [20] 0.024

FLII (UniProt Q13045)
inactive: [1] -0.019 | [2] -0.163 | [3] 0.048 | [4] 0.001 | [5] -0.016 | [6] -0.026 | [7] -0.004 | [8] 0.026 | [9] -0.039 | [10] 0.015 | [11] 0 | [12] 0.009 | [13] -0.038 | [14] -0.025 | [15] 0.034 | [16] -0.028 | [17] 0.03 | [18] -0.031 | [19] 0.024 | [20] 0.018

FAM3C (UniProt Q92520)
inactive: [1] -0.098 | [2] -0.206 | [3] -0.013 | [4] -0.065 | [5] 0.019 | [6] -0.057 | [7] -0.01 | [8] 0 | [9] -0.047 | [10] 0.096 | [11] 0.043 | [12] -0.108 | [13] -0.043 | [14] -0.073 | [15] -0.033 | [16] -0.037 | [17] -0.012 | [18] -0.078 | [19] 0.007 | [20] 0.007

2 records drawn at random from those above, as already listed:
FLII (UniProt Q13045)
inactive: [1] -0.019 | [2] -0.163 | [3] 0.048 | [4] 0.001 | [5] -0.016 | [6] -0.026 | [7] -0.004 | [8] 0.026 | [9] -0.039 | [10] 0.015 | [11] 0 | [12] 0.009 | [13] -0.038 | [14] -0.025 | [15] 0.034 | [16] -0.028 | [17] 0.03 | [18] -0.031 | [19] 0.024 | [20] 0.018

FAM3C (UniProt Q92520)
inactive: [1] -0.098 | [2] -0.206 | [3] -0.013 | [4] -0.065 | [5] 0.019 | [6] -0.057 | [7] -0.01 | [8] 0 | [9] -0.047 | [10] 0.096 | [11] 0.043 | [12] -0.108 | [13] -0.043 | [14] -0.073 | [15] -0.033 | [16] -0.037 | [17] -0.012 | [18] -0.078 | [19] 0.007 | [20] 0.007

Continuation.

FGF13 isoform 3 (UniProt Q92913)
inactive: [1] 0.02 | [2] -0.051 | [3] -0.019 | [4] 0.04 | [5] 0.029 | [6] 0.047 | [7] 0.014 | [8] 0.007 | [9] 0.012 | [10] 0.071 | [11] 0.029 | [12] 0.043 | [13] -0.029 | [14] 0.03 | [15] -0.022 | [16] -0.129 | [17] 0.036 | [18] 0 | [19] -0.006 | [20] -0.036

FLOT1 (UniProt O75955)
inactive: [1] 0.092 | [2] 0.235 | [3] -0.037 | [4] 0.061 | [5] -0.007 | [6] 0.153 | [7] -0.112 | [8] -0.059 | [9] 0.33 | [10] 0.433 | [11] -0.262 | [12] -0.144 | [13] 0.18 | [14] 0.172 | [15] -0.046 | [16] 0.049 | [17] 0.279 | [18] 0.204 | [19] 0.168 | [20] -0.086

FBXL20 (UniProt Q96IG2)
inactive: [1] 0.054 | [2] 0.008 | [3] 0.047 | [4] -0.002 | [5] -0.047 | [6] -0.119 | [7] -0.011 | [8] 0.042 | [9] -0.024 | [10] 0.042 | [11] 0.077 | [12] -0.073 | [13] 0.031 | [14] 0 | [15] -0.019 | [16] 0.028 | [17] -0.009 | [18] 0.118 | [19] 0.003 | [20] 0.003

FHL2 (UniProt Q14192)
inactive: [1] 0.016 | [2] -0.029 | [3] -0.002 | [4] 0.006 | [5] -0.013 | [6] -0.008 | [7] -0.055 | [8] 0.001 | [9] -0.054 | [10] 0.012 | [11] 0.053 | [12] 0.039 | [13] 0.045 | [14] -0.052 | [15] 0 | [16] -0.001 | [17] -0.033 | [18] -0.082 | [19] -0.01 | [20] 0.021

FHL3 (UniProt Q13643)
inactive: [1] 0.004 | [2] 0.063 | [3] -0.021 | [4] 0.018 | [5] 0.018 | [6] 0.011 | [7] -0.053 | [8] -0.023 | [9] -0.057 | [10] -0.019 | [11] 0.018 | [12] 0.071 | [13] 0.019 | [14] -0.047 | [15] 0.024 | [16] 0.016 | [17] 0 | [18] -0.077 | [19] -0.029 | [20] 0.024

FLAD1 (UniProt Q8NFF5)
inactive: [1] 0.048 | [2] 0.04 | [3] 0.032 | [4] -0.014 | [5] -0.01 | [6] -0.115 | [7] 0.043 | [8] 0.002 | [9] -0.04 | [10] -0.007 | [11] 0.042 | [12] 0.092 | [13] -0.06 | [14] 0.036 | [15] 0.023 | [16] -0.02 | [17] -0.003 | [18] -0.026 | [19] -0.018 | [20] 0.028

FAU (UniProt P62861)
inactive: [1] 0.227 | [2] 0.341 | [3] -0.001 | [4] -0.295 | [5] 0.006 | [6] 0.166 | [7] -0.154 | [8] -0.105 | [9] 0.308 | [10] 0.198 | [11] -0.079 | [12] 0 | [13] 0.238 | [14] 0.087 | [15] 0.072 | [16] 0.204 | [17] 0.307 | [18] 0.129 | [19] 0.102 | [20] 0.058

FH (UniProt P07954)
inactive: [1] 0.019 | [2] 0.134 | [3] 0.021 | [4] 0.035 | [5] 0.007 | [6] -0.107 | [7] 0.01 | [8] 0.067 | [9] -0.103 | [10] 0.007 | [11] -0.015 | [12] 0.01 | [13] -0.049 | [14] 0.004 | [15] 0.023 | [16] -0.022 | [17] -0.05 | [18] 0.005 | [19] -0.012 | [20] 0.007

FNBP4 isoform 2 (UniProt Q8N3X1)
inactive: [1] 0.052 | [2] 0.077 | [3] -0.059 | [4] -0.011 | [5] 0.016 | [6] -0.006 | [7] -0.041 | [8] -0.019 | [9] -0.002 | [10] 0.034 | [11] 0.028 | [12] 0.036 | [13] 0.013 | [14] -0.02 | [15] -0.036 | [16] -0.017 | [17] -0.006 | [18] -0.054 | [19] -0.036 | [20] 0.037

FAM98B (UniProt Q52LJ0)
inactive: [1] 0.04 | [2] -0.019 | [3] 0.043 | [4] -0.008 | [5] -0.048 | [6] 0.022 | [7] 0.044 | [8] 0.038 | [9] 0.04 | [10] 0.045 | [11] -0.062 | [12] -0.048 | [13] -0.002 | [14] 0.064 | [15] 0.035 | [16] 0.115 | [17] 0.087 | [18] 0.117 | [19] 0.048 | [20] -0.113

FAM49B (UniProt Q9NUQ9)
inactive: [1] 0.003 | [2] 0.01 | [3] 0.001 | [4] -0.024 | [5] -0.029 | [6] -0.031 | [7] 0.014 | [8] 0.031 | [9] -0.088 | [10] -0.071 | [11] 0.023 | [12] 0.004 | [13] -0.07 | [14] -0.034 | [15] 0.005 | [16] -0.029 | [17] -0.033 | [18] -0.006 | [19] 0.009 | [20] -0.01

FKBPL (UniProt Q9UIM3)
inactive: [1] -0.033 | [2] -0.075 | [3] 0.017 | [4] 0.047 | [5] -0.002 | [6] -0.047 | [7] -0.05 | [8] 0.006 | [9] -0.049 | [10] 0 | [11] 0.003 | [12] -0.007 | [13] -0.03 | [14] 0.007 | [15] -0.008 | [16] 0.021 | [17] 0.012 | [18] -0.009 | [19] 0.009 | [20] 0.072

FANCB (UniProt Q8NB91)
inactive: [1] 0.014 | [2] 0.04 | [3] -0.045 | [4] 0.013 | [5] -0.017 | [6] 0.034 | [7] -0.064 | [8] -0.002 | [9] -0.04 | [10] 0.089 | [11] 0.032 | [12] 0.015 | [13] 0.022 | [14] -0.151 | [15] -0.009 | [16] -0.008 | [17] -0.089 | [18] -0.018 | [19] 0.021 | [20] -0.017
